Laboratory results from the supplement of paper PMC10849652.
This is one part of the list.

The chains behind the UniProt entries cited, without tags or fusion partners. Where a name states a change or a piece, a line headed by the entry shows the natural chain unless it says otherwise.
UniProt P0CAP2, whole entry, looked up: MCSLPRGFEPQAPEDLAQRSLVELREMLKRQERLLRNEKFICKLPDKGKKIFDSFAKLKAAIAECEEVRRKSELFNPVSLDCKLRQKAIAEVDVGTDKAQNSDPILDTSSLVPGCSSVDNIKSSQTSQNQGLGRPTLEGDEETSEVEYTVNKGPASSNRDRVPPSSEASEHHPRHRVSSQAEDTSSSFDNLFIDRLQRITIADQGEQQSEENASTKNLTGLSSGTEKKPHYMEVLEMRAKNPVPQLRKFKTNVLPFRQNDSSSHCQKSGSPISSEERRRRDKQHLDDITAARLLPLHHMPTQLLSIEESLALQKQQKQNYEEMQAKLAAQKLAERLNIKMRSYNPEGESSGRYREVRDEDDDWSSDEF
UniProt O94903: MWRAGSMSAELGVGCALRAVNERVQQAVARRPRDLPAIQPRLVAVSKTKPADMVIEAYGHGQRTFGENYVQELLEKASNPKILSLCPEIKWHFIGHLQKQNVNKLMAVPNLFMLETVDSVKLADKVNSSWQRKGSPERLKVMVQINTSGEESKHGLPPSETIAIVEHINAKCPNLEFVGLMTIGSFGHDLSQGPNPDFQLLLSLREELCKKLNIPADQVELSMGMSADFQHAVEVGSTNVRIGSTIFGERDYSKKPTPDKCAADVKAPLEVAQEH
UniProt Q8TF01: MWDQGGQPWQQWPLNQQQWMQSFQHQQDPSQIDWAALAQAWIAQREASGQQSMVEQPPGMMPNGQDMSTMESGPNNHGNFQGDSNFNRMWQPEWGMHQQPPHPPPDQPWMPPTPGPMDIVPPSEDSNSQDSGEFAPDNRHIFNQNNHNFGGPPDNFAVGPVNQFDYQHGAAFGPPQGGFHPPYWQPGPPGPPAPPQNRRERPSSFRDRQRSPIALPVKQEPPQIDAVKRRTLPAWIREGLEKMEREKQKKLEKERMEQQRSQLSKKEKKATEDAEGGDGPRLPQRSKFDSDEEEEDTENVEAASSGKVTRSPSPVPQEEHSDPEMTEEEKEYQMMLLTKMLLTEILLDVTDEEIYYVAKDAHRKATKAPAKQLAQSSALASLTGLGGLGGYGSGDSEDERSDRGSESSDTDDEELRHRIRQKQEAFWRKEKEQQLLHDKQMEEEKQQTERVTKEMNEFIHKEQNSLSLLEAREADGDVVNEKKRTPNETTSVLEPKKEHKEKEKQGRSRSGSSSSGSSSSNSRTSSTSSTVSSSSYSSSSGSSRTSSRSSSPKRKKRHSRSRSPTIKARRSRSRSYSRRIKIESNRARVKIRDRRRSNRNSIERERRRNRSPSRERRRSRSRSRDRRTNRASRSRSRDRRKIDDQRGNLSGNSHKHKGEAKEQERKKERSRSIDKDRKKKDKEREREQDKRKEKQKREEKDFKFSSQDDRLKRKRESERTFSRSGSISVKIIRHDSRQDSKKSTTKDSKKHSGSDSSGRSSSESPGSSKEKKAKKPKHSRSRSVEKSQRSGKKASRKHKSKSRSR
UniProt O60568: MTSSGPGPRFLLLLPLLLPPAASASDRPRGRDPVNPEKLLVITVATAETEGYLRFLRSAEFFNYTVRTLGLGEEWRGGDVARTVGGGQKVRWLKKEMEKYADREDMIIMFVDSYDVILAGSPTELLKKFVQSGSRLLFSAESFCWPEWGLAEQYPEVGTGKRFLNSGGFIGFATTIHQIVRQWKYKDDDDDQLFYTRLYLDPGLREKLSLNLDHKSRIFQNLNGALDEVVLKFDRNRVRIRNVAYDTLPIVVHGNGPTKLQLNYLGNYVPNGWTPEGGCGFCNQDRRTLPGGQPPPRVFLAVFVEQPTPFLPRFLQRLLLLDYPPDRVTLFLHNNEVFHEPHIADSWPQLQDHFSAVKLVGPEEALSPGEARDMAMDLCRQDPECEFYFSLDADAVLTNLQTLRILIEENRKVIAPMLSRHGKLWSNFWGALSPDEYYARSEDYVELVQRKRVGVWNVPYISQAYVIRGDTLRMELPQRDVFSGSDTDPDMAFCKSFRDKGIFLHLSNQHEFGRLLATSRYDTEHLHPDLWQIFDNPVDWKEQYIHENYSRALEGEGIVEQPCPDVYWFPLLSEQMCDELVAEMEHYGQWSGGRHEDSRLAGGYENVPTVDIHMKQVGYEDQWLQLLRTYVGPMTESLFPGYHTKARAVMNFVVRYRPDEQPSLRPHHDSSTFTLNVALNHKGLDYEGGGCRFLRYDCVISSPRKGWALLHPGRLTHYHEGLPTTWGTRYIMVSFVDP
UniProt Q969H6: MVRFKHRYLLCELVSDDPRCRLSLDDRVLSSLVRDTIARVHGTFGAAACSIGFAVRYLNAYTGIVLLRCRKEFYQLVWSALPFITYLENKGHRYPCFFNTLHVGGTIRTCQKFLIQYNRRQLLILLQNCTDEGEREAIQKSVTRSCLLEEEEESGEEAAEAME
UniProt Q8IY17: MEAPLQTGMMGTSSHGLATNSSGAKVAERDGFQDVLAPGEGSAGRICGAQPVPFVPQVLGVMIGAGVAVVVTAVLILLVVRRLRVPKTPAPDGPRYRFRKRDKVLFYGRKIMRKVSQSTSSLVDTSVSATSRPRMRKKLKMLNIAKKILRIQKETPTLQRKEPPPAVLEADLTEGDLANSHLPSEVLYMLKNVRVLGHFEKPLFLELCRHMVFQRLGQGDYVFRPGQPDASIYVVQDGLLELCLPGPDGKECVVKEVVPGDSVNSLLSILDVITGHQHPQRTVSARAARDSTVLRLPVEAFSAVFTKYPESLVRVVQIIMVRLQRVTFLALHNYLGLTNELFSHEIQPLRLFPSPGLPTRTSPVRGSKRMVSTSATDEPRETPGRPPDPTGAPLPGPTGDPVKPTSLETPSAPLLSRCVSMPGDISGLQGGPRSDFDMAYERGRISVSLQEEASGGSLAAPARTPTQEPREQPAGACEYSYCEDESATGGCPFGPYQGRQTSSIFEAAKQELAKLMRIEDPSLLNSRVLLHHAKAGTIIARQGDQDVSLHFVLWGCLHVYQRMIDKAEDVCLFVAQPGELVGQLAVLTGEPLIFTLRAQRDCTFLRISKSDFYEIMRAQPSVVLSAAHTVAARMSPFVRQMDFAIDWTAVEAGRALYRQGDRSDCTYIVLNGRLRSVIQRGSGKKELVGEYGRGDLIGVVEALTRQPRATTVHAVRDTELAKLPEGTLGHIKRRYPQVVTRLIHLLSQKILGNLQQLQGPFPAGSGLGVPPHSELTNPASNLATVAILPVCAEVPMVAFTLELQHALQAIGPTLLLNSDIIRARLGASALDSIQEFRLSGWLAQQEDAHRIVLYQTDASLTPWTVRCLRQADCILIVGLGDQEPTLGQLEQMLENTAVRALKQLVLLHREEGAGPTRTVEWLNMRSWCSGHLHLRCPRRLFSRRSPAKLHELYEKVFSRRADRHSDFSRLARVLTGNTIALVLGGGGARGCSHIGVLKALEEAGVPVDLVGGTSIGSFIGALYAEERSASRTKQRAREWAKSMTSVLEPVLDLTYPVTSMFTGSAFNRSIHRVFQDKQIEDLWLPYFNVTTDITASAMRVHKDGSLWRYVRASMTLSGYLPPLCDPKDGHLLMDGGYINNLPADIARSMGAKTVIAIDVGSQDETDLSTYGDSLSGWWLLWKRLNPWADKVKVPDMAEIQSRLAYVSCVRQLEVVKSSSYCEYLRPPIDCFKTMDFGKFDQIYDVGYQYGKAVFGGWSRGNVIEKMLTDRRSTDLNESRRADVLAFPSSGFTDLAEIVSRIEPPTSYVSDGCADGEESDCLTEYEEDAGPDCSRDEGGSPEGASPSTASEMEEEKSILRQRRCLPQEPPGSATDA
UniProt Q7Z4H8: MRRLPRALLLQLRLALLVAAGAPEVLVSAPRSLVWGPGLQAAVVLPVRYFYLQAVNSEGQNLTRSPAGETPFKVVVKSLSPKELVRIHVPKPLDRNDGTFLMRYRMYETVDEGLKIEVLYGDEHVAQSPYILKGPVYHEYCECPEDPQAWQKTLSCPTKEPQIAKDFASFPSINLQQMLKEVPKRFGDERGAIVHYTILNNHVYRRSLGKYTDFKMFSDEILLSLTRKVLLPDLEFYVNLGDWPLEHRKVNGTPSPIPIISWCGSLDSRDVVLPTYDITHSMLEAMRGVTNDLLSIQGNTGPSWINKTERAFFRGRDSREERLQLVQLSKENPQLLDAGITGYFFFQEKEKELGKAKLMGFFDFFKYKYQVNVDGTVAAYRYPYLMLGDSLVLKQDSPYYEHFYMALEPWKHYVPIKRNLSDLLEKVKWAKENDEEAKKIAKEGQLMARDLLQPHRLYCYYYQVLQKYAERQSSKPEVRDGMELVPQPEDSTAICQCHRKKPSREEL
UniProt Q15126: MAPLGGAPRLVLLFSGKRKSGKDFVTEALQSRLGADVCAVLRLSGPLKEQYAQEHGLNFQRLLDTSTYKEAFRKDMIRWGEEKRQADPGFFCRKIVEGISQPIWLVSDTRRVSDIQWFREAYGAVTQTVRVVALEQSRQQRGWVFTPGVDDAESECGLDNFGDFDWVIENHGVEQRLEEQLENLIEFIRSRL
UniProt Q8NA72: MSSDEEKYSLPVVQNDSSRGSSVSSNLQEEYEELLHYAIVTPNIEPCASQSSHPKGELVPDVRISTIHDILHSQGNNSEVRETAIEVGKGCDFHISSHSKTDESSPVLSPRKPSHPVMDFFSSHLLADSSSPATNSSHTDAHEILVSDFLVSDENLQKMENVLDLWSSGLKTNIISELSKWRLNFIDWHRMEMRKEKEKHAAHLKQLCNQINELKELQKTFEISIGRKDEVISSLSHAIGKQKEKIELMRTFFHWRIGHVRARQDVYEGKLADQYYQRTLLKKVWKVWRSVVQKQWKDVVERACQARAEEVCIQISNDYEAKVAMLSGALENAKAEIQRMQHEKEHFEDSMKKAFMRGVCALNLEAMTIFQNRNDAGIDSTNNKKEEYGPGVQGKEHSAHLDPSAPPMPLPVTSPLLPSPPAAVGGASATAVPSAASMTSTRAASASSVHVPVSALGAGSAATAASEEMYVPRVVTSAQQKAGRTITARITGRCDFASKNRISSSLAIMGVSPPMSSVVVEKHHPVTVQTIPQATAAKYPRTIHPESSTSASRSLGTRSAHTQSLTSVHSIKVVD
UniProt Q9H1D9: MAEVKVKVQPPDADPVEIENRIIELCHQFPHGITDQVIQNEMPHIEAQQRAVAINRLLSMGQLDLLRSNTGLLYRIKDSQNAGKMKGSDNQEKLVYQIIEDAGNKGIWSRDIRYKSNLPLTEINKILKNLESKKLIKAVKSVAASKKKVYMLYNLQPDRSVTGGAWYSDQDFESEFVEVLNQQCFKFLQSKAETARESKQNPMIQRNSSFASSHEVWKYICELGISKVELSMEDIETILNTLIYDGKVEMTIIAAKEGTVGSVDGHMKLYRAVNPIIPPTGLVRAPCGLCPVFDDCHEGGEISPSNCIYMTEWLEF
UniProt Q9H9Y6, whole entry, looked up: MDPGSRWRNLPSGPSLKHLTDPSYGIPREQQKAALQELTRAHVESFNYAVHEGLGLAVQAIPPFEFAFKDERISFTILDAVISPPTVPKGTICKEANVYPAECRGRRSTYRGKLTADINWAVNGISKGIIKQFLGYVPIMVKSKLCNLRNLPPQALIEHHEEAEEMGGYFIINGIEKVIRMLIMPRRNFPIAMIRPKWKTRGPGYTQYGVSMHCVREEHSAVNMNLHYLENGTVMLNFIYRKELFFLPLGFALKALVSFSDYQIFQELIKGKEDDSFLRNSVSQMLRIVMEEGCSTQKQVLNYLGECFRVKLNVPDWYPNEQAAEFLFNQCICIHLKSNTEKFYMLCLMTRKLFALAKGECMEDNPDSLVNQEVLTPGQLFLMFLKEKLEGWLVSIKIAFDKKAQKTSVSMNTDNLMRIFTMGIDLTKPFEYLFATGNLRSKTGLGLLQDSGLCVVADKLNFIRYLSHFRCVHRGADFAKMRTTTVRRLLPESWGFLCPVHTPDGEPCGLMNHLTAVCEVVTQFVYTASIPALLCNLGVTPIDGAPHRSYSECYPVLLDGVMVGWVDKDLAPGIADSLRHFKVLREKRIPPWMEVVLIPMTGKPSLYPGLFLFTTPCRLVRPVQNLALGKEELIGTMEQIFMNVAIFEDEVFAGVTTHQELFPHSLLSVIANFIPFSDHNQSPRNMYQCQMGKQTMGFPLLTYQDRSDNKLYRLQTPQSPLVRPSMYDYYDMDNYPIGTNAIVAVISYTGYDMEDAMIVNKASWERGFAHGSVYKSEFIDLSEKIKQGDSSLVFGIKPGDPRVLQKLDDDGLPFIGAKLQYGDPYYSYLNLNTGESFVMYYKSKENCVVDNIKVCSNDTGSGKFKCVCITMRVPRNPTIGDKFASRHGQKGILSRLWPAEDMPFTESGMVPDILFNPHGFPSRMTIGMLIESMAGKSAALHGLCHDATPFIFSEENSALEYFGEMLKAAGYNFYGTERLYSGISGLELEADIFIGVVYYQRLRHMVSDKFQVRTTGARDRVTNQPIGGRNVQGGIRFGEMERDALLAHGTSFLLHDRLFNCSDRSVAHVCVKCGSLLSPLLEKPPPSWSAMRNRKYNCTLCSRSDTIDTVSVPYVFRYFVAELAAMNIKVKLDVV

Legend:
Experiment in all cases: log2 fold change, soluble protein after heating vs DMSO (PISA); higher = thermal stabilisation; K562 lysate, 10 uM; active = over 0.2 and 3.5 SD of the protein, either way, in both replicates (recomputed)
ibrutinib = compound: C=CC(=O)N1CCC[C@@H](n2nc(-c3ccc(Oc4ccccc4)cc3)c3c(N)ncnc32)C1 [ibrutinib]
How it was run: (§1)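 A 30 min treatment with 10 μM compound was applied to crude K562 extract at 1 mg/mL protein in PBS pH 7.4 with 1 mM MgCl2. Heating for 3 min spanned 48°C-58°C, after which aliquots were pooled, adjusted to 0.5% NP-40 at 4°C and spun at 21,000xg for 90 min. TMTpro 16plex LC-MS/MS of the supernatant, with channel sums equalised, gave values recorded as log-two fold change in thermal stability against solvent controls, from duplicates.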

[1] = compound: CC(=O)c1cnc2ccc(-c3cc(Cl)c(O)c(Cl)c3)nc2c1N[C@H]1CC[C@H](CN(C)C)CC1
How it was run: as §1

ralimetinib = compound: CC(C)(C)Cn1c(N)nc2ccc(-c3[nH]c(C(C)(C)C)nc3-c3ccc(F)cc3)nc21 [ralimetinib]
How it was run: as §1

[2] = compound: CC(C)(O)CC(=O)NCCn1ccc2ncnc(Nc3ccc(Oc4cccc(C(F)(F)F)c4)c(Cl)c3)c21
How it was run: as §1

[3] = compound: CC(C)C1=C2N=C(C=C(N2N=C1)NCC3=CC=CC=C3)NCCCCCCN
How it was run: as §1

[4] = compound: CC1=C(C(CC(=O)N1)C2=CC=C(C=C2)C(F)(F)F)C(=O)NC3=C(C=C4C(=C3)C=NN4)F
How it was run: as §1

[5] = compound: CC1=C(C2=C(C=C1)C(=O)C3=CC=CC=C3N2CCCN)C
How it was run: as §1

[6] = compound: CC1=C(C=C(C=C1)NC(=O)C2=CC(=CC=C2)C(C)(C)C#N)NC3=CC4=C(C=C3)N=CN(C4=O)C
How it was run: as §1

[7] = compound: CC1=C(C=C(C=C1)NC(=O)C2=CC(=CC=C2)N(C)C)NC(=O)C3=CC=C(C=C3)O
How it was run: as §1

[8] = compound: CC1=CC=C(C=C1)SC2=C3C=C(SC3=CN=C2)C(=O)N
How it was run: as §1

vemurafenib = compound: CCCS(=O)(=O)Nc1ccc(F)c(C(=O)c2c[nH]c3ncc(-c4ccc(Cl)cc4)cc23)c1F [vemurafenib]
How it was run: as §1

[9] = compound: CCCS(=O)(=O)Nc1ccc(F)c(C(=O)c2c[nH]c3ncc(Cl)cc23)c1F
How it was run: as §1

barasertib = compound: CCN(CCCOc1ccc2c(Nc3cc(CC(=O)Nc4cccc(F)c4)[nH]n3)ncnc2c1)CCOP(=O)(O)O [barasertib]
How it was run: as §1

[10] = compound: CC[C@@H]1C(=O)N(C)c2cnc(Nc3ccc(C(=O)NC4CCN(C)CC4)cc3OC)nc2N1C1CCCC1
How it was run: as §1

volasertib = compound: CC[C@@H]1C(=O)N(C)c2cnc(Nc3ccc(C(=O)N[C@H]4CC[C@H](N5CCN(CC6CC6)CC5)CC4)cc3OC)nc2N1C(C)C [volasertib]
How it was run: as §1

[11] = compound: CCn1c(C(=O)N(C2CC2)C2CC2)cc2c3c(ncn3C)c(Nc3cc(C)n(C)n3)nc21
How it was run: as §1

[12] = compound: CCn1cc(-c2ccnc3[nH]c(-c4cccc(CN(C)C)c4)cc23)c(-c2ccc(NC(=O)N(C)C)cc2)n1
How it was run: as §1

[13] = compound: CN1CCC(CNc2ccc3ncc(-c4cccc(OC(F)(F)F)c4)n3n2)CC1
How it was run: as §1

saracatinib = compound: CN1CCN(CCOc2cc(OC3CCOCC3)c3c(Nc4c(Cl)ccc5c4OCO5)ncnc3c2)CC1 [saracatinib]
How it was run: as §1

sotrastaurin = compound: CN1CCN(c2nc(C3=C(c4c[nH]c5ccccc45)C(=O)NC3=O)c3ccccc3n2)CC1 [sotrastaurin]
How it was run: as §1

Measured: log2 fold change

POLR2M (UniProt P0CAP2)
inactive: ibrutinib -0.011 | [1] 0.014 | ralimetinib -0.018 | [2] -0.042 | [3] -0.001 | [4] -0.014 | [5] -0.046 | [6] -0.055 | [7] -0.008 | [8] 0.007 | vemurafenib 0.014 | [9] 0.02 | barasertib 0.021 | [10] -0.108 | volasertib -0.024 | [11] 0.008 | [12] -0.055 | [13] 0.067 | saracatinib -0.007 | sotrastaurin 0.041

PLG (UniProt P00747)
inactive: ibrutinib -0.032 | [1] 0 | ralimetinib -0.005 | [2] -0.163 | [3] 0.048 | [4] 0.032 | [5] 0.026 | [6] -0.127 | [7] 0.028 | [8] -0.05 | vemurafenib 0.286 | [9] 0.06 | barasertib 0.182 | [10] 0.068 | volasertib 0.002 | [11] 0.023 | [12] -0.133 | [13] 0.07 | saracatinib -0.155 | sotrastaurin 0.024

PLPBP (UniProt O94903)
inactive: ibrutinib 0.015 | [1] -0.006 | ralimetinib 0.023 | [2] -0.018 | [3] -0.015 | [4] 0.046 | [5] 0.015 | [6] 0.055 | [7] 0.012 | [8] -0.009 | vemurafenib 0.014 | [9] 0.009 | barasertib -0.013 | [10] -0.019 | volasertib -0.006 | [11] 0 | [12] -0.022 | [13] 0.004 | saracatinib 0.011 | sotrastaurin -0.016

PNISR (UniProt Q8TF01)
inactive: ibrutinib 0.033 | [1] -0.012 | ralimetinib 0.004 | [2] -0.008 | [3] 0.003 | [4] -0.008 | [5] -0.009 | [6] -0.002 | [7] -0.02 | [8] -0.034 | vemurafenib 0.004 | [9] 0.017 | barasertib -0.041 | [10] 0.046 | volasertib 0.014 | [11] 0.004 | [12] -0.085 | [13] 0.063 | saracatinib 0.006 | sotrastaurin 0.004

PLOD3 (UniProt O60568)
inactive: ibrutinib 0.002 | [1] 0.013 | ralimetinib 0.011 | [2] 0.028 | [3] 0.004 | [4] 0.039 | [5] 0.036 | [6] -0.018 | [7] -0.005 | [8] 0.031 | vemurafenib -0.02 | [9] -0.018 | barasertib -0.004 | [10] -0.048 | volasertib -0.005 | [11] 0.026 | [12] 0.01 | [13] 0.022 | saracatinib -0.015 | sotrastaurin 0.005

POP5 (UniProt Q969H6)
inactive: ibrutinib 0.012 | [1] -0.035 | ralimetinib 0.115 | [2] 0.014 | [3] -0.06 | [4] 0.02 | [5] -0.039 | [6] 0.066 | [7] -0.084 | [8] -0.01 | vemurafenib -0.028 | [9] 0.043 | barasertib -0.019 | [10] -0.029 | volasertib 0.022 | [11] 0.099 | [12] -0.061 | [13] 0.048 | saracatinib 0.036 | sotrastaurin -0.016

PNPLA6 (UniProt Q8IY17)
inactive: ibrutinib 0.274 | [1] -0.014 | ralimetinib 0.023 | [2] -0.07 | [3] -0.119 | [4] 0.088 | [5] 0.103 | [6] -0.044 | [7] -0.044 | [8] -0.035 | vemurafenib -0.011 | [9] 0.02 | barasertib 0.118 | [10] -0.24 | volasertib -0.051 | [11] 0.008 | [12] -0.19 | [13] -0.097 | saracatinib 0.121 | sotrastaurin 0.023

PMF1 (UniProt Q6P1K2)
inactive: ibrutinib 0.127 | [1] 0.04 | ralimetinib 0.019 | [2] -0.074 | [3] 0.001 | [4] 0.003 | [5] 0.032 | [6] -0.032 | [7] 0.001 | [8] -0.037 | vemurafenib 0.017 | [9] 0.014 | barasertib 0.075 | [10] 0.02 | volasertib 0.038 | [11] -0.034 | [12] 0.121 | [13] -0.047 | saracatinib 0.028 | sotrastaurin -0.017

POLB (UniProt P06746)
inactive: ibrutinib -0.011 | [1] -0.003 | ralimetinib 0.068 | [2] -0.042 | [3] 0.083 | [4] 0.017 | [5] -0.006 | [6] -0.027 | [7] -0.034 | [8] -0.003 | vemurafenib -0.013 | [9] 0.003 | barasertib -0.029 | [10] -0.013 | volasertib -0.025 | [11] 0.032 | [12] -0.015 | [13] -0.07 | saracatinib 0.033 | sotrastaurin 0.048

POGLUT3 (UniProt Q7Z4H8)
inactive: ibrutinib 0.002 | [1] 0.023 | ralimetinib 0.036 | [2] -0.013 | [3] 0.003 | [4] -0.01 | [5] 0.002 | [6] -0.055 | [7] -0.021 | [8] 0.002 | vemurafenib 0.026 | [9] -0.001 | barasertib 0.006 | [10] 0.013 | volasertib -0.026 | [11] 0.012 | [12] -0.052 | [13] 0.022 | saracatinib 0.016 | sotrastaurin -0.001

PMVK (UniProt Q15126)
inactive: ibrutinib 0.028 | [1] 0.022 | ralimetinib 0.05 | [2] -0.021 | [3] -0.086 | [4] -0.057 | [5] 0.036 | [6] 0.033 | [7] 0.056 | [8] -0.004 | vemurafenib 0.032 | [9] 0.013 | barasertib 0.035 | [10] -0.163 | volasertib 0.016 | [11] -0.004 | [12] -0.002 | [13] 0.03 | saracatinib 0.01 | sotrastaurin 0.001

POC5 (UniProt Q8NA72)
inactive: ibrutinib 0.013 | [1] -0.063 | ralimetinib 0.062 | [2] -0.029 | [3] 0.101 | [4] 0.015 | [5] 0.026 | [6] -0.015 | [7] 0 | [8] -0.02 | vemurafenib -0.062 | [9] -0.049 | barasertib 0.014 | [10] 0.17 | volasertib 0 | [11] -0.045 | [12] 0.021 | [13] -0.011 | saracatinib -0.087 | sotrastaurin -0.046

POLR3F (UniProt Q9H1D9)
inactive: ibrutinib 0.016 | [1] -0.016 | ralimetinib 0.045 | [2] -0.028 | [3] -0.008 | [4] 0.023 | [5] -0.007 | [6] -0.023 | [7] -0.008 | [8] 0.008 | vemurafenib 0.039 | [9] -0.021 | barasertib -0.008 | [10] -0.037 | volasertib -0.018 | [11] -0.017 | [12] 0.072 | [13] -0.01 | saracatinib 0.016 | sotrastaurin 0.043

2 entries picked at random from the list so far:
PMVK (UniProt Q15126)
inactive: ibrutinib 0.028 | [1] 0.022 | ralimetinib 0.05 | [2] -0.021 | [3] -0.086 | [4] -0.057 | [5] 0.036 | [6] 0.033 | [7] 0.056 | [8] -0.004 | vemurafenib 0.032 | [9] 0.013 | barasertib 0.035 | [10] -0.163 | volasertib 0.016 | [11] -0.004 | [12] -0.002 | [13] 0.03 | saracatinib 0.01 | sotrastaurin 0.001

POC5 (UniProt Q8NA72)
inactive: ibrutinib 0.013 | [1] -0.063 | ralimetinib 0.062 | [2] -0.029 | [3] 0.101 | [4] 0.015 | [5] 0.026 | [6] -0.015 | [7] 0 | [8] -0.02 | vemurafenib -0.062 | [9] -0.049 | barasertib 0.014 | [10] 0.17 | volasertib 0 | [11] -0.045 | [12] 0.021 | [13] -0.011 | saracatinib -0.087 | sotrastaurin -0.046

The listing continues.

PMS2 (UniProt P54278)
inactive: ibrutinib 0.027 | [1] 0.032 | ralimetinib 0.046 | [2] -0.047 | [3] 0.069 | [4] -0.038 | [5] -0.049 | [6] -0.019 | [7] -0.004 | [8] 0.002 | vemurafenib -0.015 | [9] -0.028 | barasertib 0.033 | [10] -0.072 | volasertib -0.147 | [11] 0.101 | [12] -0.02 | [13] 0.012 | saracatinib -0.004 | sotrastaurin 0.001

POLR2C (UniProt P19387)
inactive: ibrutinib -0.014 | [1] -0.002 | ralimetinib -0.017 | [2] 0.018 | [3] -0.002 | [4] 0.039 | [5] 0.004 | [6] 0.017 | [7] 0.018 | [8] 0.011 | vemurafenib 0.001 | [9] -0.007 | barasertib 0.022 | [10] -0.027 | volasertib -0.039 | [11] 0.009 | [12] -0.048 | [13] 0.062 | saracatinib -0.008 | sotrastaurin -0.01

POLR1B isoform 3 (UniProt Q9H9Y6)
inactive: ibrutinib 0.137 | [1] -0.006 | ralimetinib 0.01 | [2] -0.015 | [3] 0.058 | [4] -0.005 | [5] -0.024 | [6] -0.036 | [7] 0.009 | [8] 0.03 | vemurafenib -0.01 | [9] 0.011 | barasertib 0.043 | [10] 0.005 | volasertib -0.03 | [11] 0.039 | [12] -0.078 | [13] -0.016 | saracatinib 0.01 | sotrastaurin -0.025
